The numbers were not newly measured in article PMC7717712, “The effects of cardiac drugs on human erythrocyte carbonic anhydrase I and II isozymes” (Journal of Enzyme Inhibition and Medicinal Chemistry, 2020), which cites them from elsewhere.

The data set has as its system aldehyde oxidase. The settings on record: read-out: aldehyde oxidase inhibition (concentration printed without endpoint name); cited from earlier work.

For `CCCNCC(O)COc1ccccc1C(=O)CCc1ccccc1` (stereo not shown) [Propafenone], the IC50 was 2500 nM.
